In patent publication US20160046678A1 (ZYNGENIA, published 2016):
Results are given in words; binding and its absence hold for the method and conditions named. Some entries that bind do so weakly or less than the wild type.

Sequences of proteins named here, by UniProt entry; tags and fusion partners are left off. Residues count along the entry.
UniProt P08069, residues 31-932: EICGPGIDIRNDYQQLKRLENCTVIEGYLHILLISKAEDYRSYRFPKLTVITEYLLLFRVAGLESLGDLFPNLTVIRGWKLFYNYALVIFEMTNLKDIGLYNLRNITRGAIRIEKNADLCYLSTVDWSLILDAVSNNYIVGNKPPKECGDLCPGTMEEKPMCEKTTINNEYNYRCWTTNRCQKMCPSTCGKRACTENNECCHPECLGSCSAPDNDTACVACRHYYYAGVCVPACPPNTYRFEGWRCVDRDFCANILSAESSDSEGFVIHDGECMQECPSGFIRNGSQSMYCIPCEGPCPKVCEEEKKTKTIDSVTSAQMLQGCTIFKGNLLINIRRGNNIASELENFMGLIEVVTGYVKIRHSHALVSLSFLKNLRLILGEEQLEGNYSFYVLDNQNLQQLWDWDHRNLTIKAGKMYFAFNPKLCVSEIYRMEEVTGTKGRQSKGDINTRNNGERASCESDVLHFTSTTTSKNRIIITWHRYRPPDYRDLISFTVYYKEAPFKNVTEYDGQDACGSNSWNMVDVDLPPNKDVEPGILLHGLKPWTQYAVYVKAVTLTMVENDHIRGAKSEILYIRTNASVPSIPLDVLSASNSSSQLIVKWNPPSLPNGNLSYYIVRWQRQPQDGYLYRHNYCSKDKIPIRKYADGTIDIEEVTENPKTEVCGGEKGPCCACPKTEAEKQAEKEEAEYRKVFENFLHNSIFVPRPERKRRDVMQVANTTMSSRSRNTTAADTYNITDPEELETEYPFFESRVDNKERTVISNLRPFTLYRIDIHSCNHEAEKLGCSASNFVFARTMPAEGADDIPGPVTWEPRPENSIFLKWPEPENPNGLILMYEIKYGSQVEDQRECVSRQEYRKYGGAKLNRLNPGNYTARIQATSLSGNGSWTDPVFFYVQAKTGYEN

Target: IGF1R (UniProt P08069)
Test: MRD identification, Example 48

binding, binds:
SLEHLCQTRDGFYELMCTLAL [IGF2042]
LCEEFHELCF [IGF23]
DSGFYMGLHK [IGF3]
LCYEFEELCF [IGF49]
LCEEFPVLCF [IGF30]
LCSEFQVLCF [IGF36]
LCLEFHELCF [IGF32]
LCQEFNELCF [IGF59]
FYDWFDMQVQ [IGF83]
LCMEFEQLCF [IGF43]
LCAEFPVLCF [IGF56]
SFYDMIELLIGQAGQGGGSGGGGGGSTIHFAQEEHP [IGF69]
FYEWFQLQMD [IGF77]
LCQEFIELCF [IGF31]
FYDWFAEQVI [IGF73]
VHWEGYQWVY [IGF78]
GFHHAYYKYRGQAGQGSATGGSSRITPSDLCKEFPELCF [IGF2036]
LCEEFIELCF [IGF40]
IPLLCLEFPVLCFENE [IGF2041]
WCQIQAFHCRGQAGQGGGSAGGGSSCNILQLMCS [IGF54]
LCQEFKELCF [IGF46]
PREACHDYDVVLHQLCMYFV [IGF2031]
LCYEFHELCF [IGF52]
FYEWFHEQVI [IGF75]
FYEWFDMQVK [IGF91]
LCQEFSELCF [IGF33]
FYEWFEPQVT [IGF84]
LCMEFKELCF [IGF29]
LCWEFPVLCF [IGF39]
SKDPVCKTKHQFYQMLCTLAF [IGF2043]
LCEEFAELCF [IGF34]
LCTEFKELCF [IGF57]
LCFEFVELCF [IGF35]
FYEWFEAQVM [IGF72]
LCDEFVELCF [IGF22]
FYEWFEAALI [IGF82]
FYGWFEEQIL [IGF61]
LCAEFPELCF [IGF25]
LCDEFQELCF [IGF53]
MDQFHWALLG [IGF10]
GSYCAPDWHNCFGQAGQGSRITPSDLCKEFPELCF [IGF2040]
LCQEFAELCF [IGF45]
EDLGCVCLTFYECMIAL [IGF2033]
LCWEGYKWFYDQIKPD [IGF2035]
LCLEFVELCF [IGF38]
FYETLFELAY [IGF79]
EFYYWFFDQY [IGF85]
QFYEWFEAQT [IGF76]
LCMEFPELCF [IGF28]
LCQEFHELCF [IGF21]
IPGLCLEFPELCFHQW [IGF2034]
AMTLDEWIRMRGQAGGSWVDPAFWGDF [IGF60]
LCLEFEELCF [IGF48]
FYDWFDMHVK [IGF68]
FECVLWNFVCK [IGF55]
WCEISTTFCNGQAGQGGGGGGSQCQLLHMFCH [IGF42]
FYEWFEAQIM [IGF67]
FYEQLEKLVY [IGF64]
LCDEFKELCF [IGF24]
RCLANSYHCSGQAGQGSATGGSSRITPSDLCKEFPELCF [IGF2038]
ICHIFWQTCNGQAGQGGGSGGSKCDILEMMCN [IGF27]
LCMEFQELCF [IGF50]
LCLEFRELCF [IGF44]
ADFYQWFQNQV [IGF92]
FYEWFEEQLI [IGF66]
FYEWFTEQVN [IGF74]
LCHEFEELCF [IGF51]
